Experimental findings from US20160289747 are described below.

Sequences of proteins named here, by UniProt entry; tags and fusion partners are left off. Residues count along the entry.
UniProt P0A7G6, 2-353: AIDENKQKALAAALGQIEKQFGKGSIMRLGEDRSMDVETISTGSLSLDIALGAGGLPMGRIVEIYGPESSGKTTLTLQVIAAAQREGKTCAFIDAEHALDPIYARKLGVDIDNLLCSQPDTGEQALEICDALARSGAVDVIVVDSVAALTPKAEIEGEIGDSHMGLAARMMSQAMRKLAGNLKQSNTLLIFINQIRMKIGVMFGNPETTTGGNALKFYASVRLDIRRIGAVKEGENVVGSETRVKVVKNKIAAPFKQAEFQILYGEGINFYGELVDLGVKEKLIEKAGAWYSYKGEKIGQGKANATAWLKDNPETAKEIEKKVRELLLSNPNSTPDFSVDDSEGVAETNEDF

For some of these results: A negative result means that nothing was seen under these conditions. For some of these results: Protein sequences can lack the tags named with them. For some of these results: For at least one entry, the source does not settle the construct or the ends of the probe. For some of these results: A weaker result is weaker than the reference pair of the same experiment.

The test system of data set [1] is ET-SSB (Extreme Thermostable Single-Stranded DNA Binding Protein). Kind of data set: binding assay. The settings on record: purified recombinant protein, protein details: New England Biolabs, label: fluorophore and quencher.
The target in data set [2] is UvsX recombinase (Enterobacteria phage T4) (UniProt P04529). Description: binding assay. Particulars: purified recombinant protein, label: fluorophore and quencher.
Data set [3] addresses T1, gp32 single-stranded DNA binding protein (Enterobacteria phage T4) (UniProt P03695).
T1 sequence (looked up, limits assumed): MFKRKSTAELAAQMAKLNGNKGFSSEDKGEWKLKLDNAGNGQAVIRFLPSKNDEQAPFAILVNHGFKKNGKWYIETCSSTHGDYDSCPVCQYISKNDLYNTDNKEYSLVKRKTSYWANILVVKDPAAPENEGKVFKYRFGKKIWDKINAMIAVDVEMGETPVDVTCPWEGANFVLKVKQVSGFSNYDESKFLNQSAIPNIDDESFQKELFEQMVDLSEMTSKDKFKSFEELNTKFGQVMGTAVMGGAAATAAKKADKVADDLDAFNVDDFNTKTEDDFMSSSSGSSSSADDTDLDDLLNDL
Kind of data set: binding assay. Particulars: purified recombinant protein, protein details: New England Biolabs.

A further data set deals with RecA (Escherichia coli) (UniProt P0A7G6). Description: binding assay. Particulars: PNA; no significant fluorescence increase; Mg, ATP; purified recombinant protein; protein details: New England Biolabs; label: fluorophore and quencher; synthetic backbone.
Data set [4] concerns the target T2, RNase H2 (Thermococcus gammatolerans) (UniProt C5A5T1).
T2 sequence (looked up, limits assumed): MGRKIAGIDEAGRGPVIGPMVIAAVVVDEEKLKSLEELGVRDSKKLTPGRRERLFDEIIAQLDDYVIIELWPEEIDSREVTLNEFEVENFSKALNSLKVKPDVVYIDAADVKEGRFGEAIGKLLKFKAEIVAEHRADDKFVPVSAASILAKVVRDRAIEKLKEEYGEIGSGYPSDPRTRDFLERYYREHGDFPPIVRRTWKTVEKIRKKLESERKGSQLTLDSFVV
Kind of data set: enzyme reaction in vitro. Particulars: purified recombinant protein, DNA:RNA hybrid.

For ACGAAAGCCGATGACTAATGC [DNA 21], the binding result in data set [1] (fluorescence dequenching, 50 ug/ml ET-SSB, Mg, single-stranded DNA) is “binds”.

On to “ACGAAAGCCGATGACTAAUGC [DNA5+2-FLUORO RNA16]”, for which the binding result is recorded as “binds more weakly” in data set [2] (16 2'-F RNA bases, fluorescence fold increase below DNA 21, variant of DNA 21); “binds more weakly” in data set [3] (16 2'-F RNA bases, fluorescence fold increase below DNA 21, label: fluorophore and quencher, variant of DNA 21). As for “ACGAAAGCCGATGACTAAUGC [DNA5+2-O-METHYL RNA16]”, the binding result in data set [2] (16 2'-OMe RNA bases, fluorescence fold increase below DNA 21, variant of DNA 21) is recorded as “binds more weakly”; in data set [3] (16 2'-OMe RNA bases, fluorescence fold increase below DNA 21, label: fluorophore and quencher, variant of DNA 21), “binds more weakly”. As for ACGAAAGCCGATGACTAAUGC [DNA5+RNA16], the binding result in data set [2] (16 RNA bases, fluorescence fold increase below DNA 21, variant of DNA 21) is on record as “binds more weakly”; in data set [3] (16 RNA bases, fluorescence fold increase below DNA 21, label: fluorophore and quencher, variant of DNA 21), “binds more weakly”. As to “ACGAAAGCCGATGACTAAUGC [DNA10+2-FLUORO RNA11]”, the binding result is “binds more weakly” in data set [2] (11 2'-F RNA bases, fluorescence fold increase below DNA 21, variant of DNA 21); “binds more weakly” in data set [3] (11 2'-F RNA bases, fluorescence fold increase below DNA 21, label: fluorophore and quencher, variant of DNA 21). In the case of “ACGAAAGCCGATGACTAAUGC [DNA10+2-O-METHYL RNA11]”, the binding result is on record as “binds more weakly” in data set [2] (11 2'-OMe RNA bases, fluorescence fold increase below DNA 21, variant of DNA 21); “binds more weakly” in data set [3] (11 2'-OMe RNA bases, fluorescence fold increase below DNA 21, label: fluorophore and quencher, variant of DNA 21). Take “ACGAAAGCCGATGACTAAUGC [DNA16+2-FLUORO RNA5]”: the binding result in data set [2] (5 2'-F RNA bases, fluorescence fold increase below DNA 21, variant of DNA 21) was “binds more weakly”; in data set [3] (5 2'-F RNA bases, fluorescence fold increase below DNA 21, label: fluorophore and quencher, variant of DNA 21) it was “binds more weakly”. As to “ACGAAAGCCGATGACTAAUGC [DNA16+2-O-METHYL RNA5]”, the binding result is recorded as “binds more weakly” in data set [2] (5 2'-OMe RNA bases, fluorescence fold increase below DNA 21, variant of DNA 21); “binds more weakly” in data set [3] (5 2'-OMe RNA bases, fluorescence fold increase below DNA 21, label: fluorophore and …, variant of DNA 21). Regarding ACGAAAGCCGATGACTAAUGC [DNA16+RNA5], the binding result in data set [2] (5 RNA bases, fluorescence fold increase below DNA 21, variant of DNA 21) is recorded as “binds more weakly”; in data set [3] (5 RNA bases, fluorescence fold increase below DNA 21, label: fluorophore and quencher, variant of DNA 21), “binds more weakly”.

As for ACGAAAGCCGATGACTAAUGC [DNA17+RNA4], the binding result in data set [2] (4 RNA bases, reduced interference with about 20% RNA, variant of DNA 21) was “binds more weakly”; in data set [3] (4 RNA bases, reduced interference with about 20% RNA, label: fluorophore and quencher, variant of DNA 21), “binds more weakly”. For the sequence “ACGAAAGCCGAUGACUAAUGC [2'-O-methyl RNA 21]”, the binding result in data set [1] (2'-OMe, more resistant than DNA) is recorded as “binds more weakly”. “ACGAAAGCCGAUGACUAAUGC [2'-fluoro RNA 21]”: the binding result in data set [1] (2'-F, more resistant than DNA) is “binds more weakly”.

With ACGAAAGCCGAUGACUAAUGC [RNA 21], the binding result in data set [1] (more resistant than DNA) is “binds more weakly”. As to AGTTGATGTGTACT [PNA 14], the binding result in data set [2] (PNA, probe remained quenched, Mg, ATP, 40 C, synthetic backbone) is on record as “no binding”; in data set [3] (PNA, little or no fluorescence increase, label: fluorophore and quencher, synthetic …), “no binding”; with RecA (Escherichia coli) it was “no binding”; in data set [1] (PNA, more resistant than DNA, synthetic backbone), “binds more weakly”. Regarding AGUUGAUGUGUA [LNA 12], the binding result in data set [1] (LNA, more resistant than DNA, synthetic backbone) is listed as “binds more weakly”. As to “AGUUGAUGUGUACUCA [SB-2'-O-methyl RNA 16 probe with complementary DNA]”, the “activity on this sequence” value in data set [4] (2'-OMe, not cleaved, label: fluorophore and quencher) is “not active”. “AGUUGAUGUGUACUGA / GATCTCAGTACACATCAACT [SB-2FLUORO probe with complementary DNA]”: the “activity on this sequence” value in data set [4] (2'-F in RNA strand, 10 ug/ml RNase H2, signal increase from cleavage, SIBA buffer, Mg, label: ROX and BHQ2) is “active”. As to TACGAAAGCCGATGACTAAUGC [DNA10+RNA11], the binding result is listed as “binds more weakly” in data set [2] (11 RNA bases, fluorescence fold increase below DNA 21, variant of DNA 21); “binds more weakly” in data set [3] (11 RNA bases, fluorescence fold increase below DNA 21, label: fluorophore and quencher, variant of DNA 21).
